Data as given in publication PMC8933458.
Results are given in words; binding and its absence hold for the method and conditions named. Binding seen in cells or lysates may run through a third protein. Some binding calls cover weakened binding; strength is not graded here.

Sequences of proteins named here, by UniProt entry; tags and fusion partners are left off.
UniProt Q8TB72: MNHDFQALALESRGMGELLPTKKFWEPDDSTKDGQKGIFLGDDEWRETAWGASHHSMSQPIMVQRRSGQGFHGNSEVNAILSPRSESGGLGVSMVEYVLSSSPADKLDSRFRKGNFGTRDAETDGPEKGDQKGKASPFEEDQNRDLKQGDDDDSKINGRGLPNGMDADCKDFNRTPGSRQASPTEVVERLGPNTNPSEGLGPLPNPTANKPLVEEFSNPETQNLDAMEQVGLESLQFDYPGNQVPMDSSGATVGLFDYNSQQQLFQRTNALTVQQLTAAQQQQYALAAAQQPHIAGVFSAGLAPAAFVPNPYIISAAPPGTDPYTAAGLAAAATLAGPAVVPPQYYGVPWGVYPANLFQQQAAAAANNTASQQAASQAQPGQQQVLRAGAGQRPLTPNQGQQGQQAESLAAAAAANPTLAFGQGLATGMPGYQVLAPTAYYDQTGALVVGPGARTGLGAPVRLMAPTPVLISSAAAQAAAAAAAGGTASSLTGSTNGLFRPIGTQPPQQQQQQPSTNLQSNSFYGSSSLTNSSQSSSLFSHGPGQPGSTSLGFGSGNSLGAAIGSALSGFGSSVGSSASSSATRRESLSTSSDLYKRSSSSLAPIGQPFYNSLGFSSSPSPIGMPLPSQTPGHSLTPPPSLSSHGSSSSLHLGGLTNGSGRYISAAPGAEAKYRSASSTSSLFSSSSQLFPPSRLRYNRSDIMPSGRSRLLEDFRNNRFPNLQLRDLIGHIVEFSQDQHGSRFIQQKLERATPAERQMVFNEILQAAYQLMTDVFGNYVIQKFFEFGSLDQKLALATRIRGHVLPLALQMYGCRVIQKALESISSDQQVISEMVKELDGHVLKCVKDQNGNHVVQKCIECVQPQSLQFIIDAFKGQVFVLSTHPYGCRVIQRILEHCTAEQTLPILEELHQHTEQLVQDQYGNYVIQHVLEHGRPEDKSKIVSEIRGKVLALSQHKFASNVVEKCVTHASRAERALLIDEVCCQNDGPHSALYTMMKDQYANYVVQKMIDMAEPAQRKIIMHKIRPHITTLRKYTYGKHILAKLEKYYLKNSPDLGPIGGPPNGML
UniProt Q14671: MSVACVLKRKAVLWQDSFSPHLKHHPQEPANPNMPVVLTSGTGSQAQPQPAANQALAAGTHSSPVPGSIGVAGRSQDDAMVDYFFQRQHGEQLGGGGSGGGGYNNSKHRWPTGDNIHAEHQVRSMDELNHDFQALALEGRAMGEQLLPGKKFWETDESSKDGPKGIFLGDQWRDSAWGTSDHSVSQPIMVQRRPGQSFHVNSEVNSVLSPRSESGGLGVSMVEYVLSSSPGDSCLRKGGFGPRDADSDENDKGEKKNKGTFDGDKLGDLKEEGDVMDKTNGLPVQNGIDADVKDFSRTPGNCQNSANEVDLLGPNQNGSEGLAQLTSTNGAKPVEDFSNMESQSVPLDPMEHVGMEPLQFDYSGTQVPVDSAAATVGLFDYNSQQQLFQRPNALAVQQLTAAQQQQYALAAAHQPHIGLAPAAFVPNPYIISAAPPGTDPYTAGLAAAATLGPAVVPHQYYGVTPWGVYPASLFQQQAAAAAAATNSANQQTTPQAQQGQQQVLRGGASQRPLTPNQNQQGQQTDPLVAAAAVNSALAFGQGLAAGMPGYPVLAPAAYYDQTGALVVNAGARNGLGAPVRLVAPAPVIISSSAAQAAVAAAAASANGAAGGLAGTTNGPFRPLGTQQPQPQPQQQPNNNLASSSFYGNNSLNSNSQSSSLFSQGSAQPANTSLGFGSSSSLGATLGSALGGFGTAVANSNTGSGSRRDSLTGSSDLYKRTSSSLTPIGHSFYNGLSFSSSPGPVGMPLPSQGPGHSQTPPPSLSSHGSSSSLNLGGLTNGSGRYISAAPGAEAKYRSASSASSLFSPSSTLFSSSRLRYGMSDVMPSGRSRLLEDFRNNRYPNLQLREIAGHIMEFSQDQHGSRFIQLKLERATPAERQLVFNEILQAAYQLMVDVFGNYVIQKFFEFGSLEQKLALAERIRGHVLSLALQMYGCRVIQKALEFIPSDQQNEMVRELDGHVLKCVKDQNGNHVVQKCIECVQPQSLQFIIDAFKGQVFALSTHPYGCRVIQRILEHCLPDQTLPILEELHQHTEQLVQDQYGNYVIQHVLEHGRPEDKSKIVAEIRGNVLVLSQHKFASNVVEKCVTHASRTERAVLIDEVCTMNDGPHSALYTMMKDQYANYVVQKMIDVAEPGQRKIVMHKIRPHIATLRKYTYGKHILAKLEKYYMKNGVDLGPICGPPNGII
UniProt A5YKK6: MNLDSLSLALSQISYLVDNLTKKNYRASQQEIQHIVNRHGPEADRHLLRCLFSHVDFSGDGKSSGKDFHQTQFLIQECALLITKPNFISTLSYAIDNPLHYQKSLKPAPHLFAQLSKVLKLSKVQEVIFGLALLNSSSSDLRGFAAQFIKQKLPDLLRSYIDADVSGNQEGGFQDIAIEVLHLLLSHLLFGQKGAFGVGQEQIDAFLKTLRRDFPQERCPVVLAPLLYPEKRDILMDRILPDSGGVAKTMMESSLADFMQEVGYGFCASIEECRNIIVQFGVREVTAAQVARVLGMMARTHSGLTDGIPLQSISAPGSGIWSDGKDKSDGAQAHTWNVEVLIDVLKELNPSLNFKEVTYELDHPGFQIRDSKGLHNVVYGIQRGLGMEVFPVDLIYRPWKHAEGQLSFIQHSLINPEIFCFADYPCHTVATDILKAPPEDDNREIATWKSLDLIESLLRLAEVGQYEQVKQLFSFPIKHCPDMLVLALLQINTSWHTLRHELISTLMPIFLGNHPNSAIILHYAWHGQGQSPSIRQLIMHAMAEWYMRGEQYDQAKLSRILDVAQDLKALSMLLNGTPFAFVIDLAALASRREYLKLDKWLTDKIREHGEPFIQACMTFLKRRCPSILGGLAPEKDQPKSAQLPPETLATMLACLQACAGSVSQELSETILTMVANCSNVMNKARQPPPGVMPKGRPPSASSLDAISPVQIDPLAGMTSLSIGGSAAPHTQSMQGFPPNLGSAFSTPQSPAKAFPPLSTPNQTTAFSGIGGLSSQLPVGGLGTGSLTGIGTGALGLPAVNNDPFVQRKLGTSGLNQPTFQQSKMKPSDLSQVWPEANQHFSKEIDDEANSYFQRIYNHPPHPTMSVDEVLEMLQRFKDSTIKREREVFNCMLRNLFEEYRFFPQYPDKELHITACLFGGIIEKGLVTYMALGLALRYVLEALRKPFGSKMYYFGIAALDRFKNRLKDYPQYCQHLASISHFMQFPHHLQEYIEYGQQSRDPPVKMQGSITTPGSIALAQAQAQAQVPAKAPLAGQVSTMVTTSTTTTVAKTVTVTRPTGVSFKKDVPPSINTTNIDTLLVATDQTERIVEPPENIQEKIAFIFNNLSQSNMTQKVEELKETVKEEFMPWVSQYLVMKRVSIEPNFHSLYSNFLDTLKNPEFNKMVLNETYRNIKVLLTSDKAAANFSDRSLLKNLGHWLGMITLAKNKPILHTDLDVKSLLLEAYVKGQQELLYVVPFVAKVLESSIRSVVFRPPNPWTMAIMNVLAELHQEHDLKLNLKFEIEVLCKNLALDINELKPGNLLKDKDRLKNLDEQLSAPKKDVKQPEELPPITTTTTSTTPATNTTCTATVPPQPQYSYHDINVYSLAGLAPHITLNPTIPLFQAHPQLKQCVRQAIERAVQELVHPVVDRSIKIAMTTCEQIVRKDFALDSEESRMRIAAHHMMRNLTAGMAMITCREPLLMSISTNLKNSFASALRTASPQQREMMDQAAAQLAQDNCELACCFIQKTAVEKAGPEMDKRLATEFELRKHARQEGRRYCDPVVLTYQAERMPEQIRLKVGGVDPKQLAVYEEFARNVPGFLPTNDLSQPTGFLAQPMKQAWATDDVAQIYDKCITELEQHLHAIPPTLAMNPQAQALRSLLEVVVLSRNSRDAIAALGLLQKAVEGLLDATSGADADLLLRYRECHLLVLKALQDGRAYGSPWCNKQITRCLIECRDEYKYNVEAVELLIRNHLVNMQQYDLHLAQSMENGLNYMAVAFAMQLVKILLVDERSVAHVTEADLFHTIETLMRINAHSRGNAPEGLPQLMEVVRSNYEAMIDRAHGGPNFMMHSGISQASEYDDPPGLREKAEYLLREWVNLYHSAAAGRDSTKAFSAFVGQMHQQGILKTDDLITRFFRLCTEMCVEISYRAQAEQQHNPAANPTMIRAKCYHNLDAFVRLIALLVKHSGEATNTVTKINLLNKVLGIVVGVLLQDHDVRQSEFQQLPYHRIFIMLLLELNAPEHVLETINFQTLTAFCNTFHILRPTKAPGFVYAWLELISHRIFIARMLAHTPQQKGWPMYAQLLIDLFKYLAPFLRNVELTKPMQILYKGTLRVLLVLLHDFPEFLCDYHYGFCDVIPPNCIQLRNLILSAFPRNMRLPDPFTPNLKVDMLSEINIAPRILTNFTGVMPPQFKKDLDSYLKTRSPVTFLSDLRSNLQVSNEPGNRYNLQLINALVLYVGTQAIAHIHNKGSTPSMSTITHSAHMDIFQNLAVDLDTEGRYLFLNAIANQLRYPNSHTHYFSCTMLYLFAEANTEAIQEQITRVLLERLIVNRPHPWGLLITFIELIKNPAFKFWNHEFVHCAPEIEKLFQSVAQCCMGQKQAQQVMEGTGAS

How the values were obtained:
[1] = target: PUM2 (human (endogenous in human NPCs)) (UniProt Q8TB72); test: proximity ligation; PLA in NPCs with or without PUM1/2 overexpression
[2] = target: PUM1 (human (endogenous in human NPCs)) (UniProt Q14671); test: as above
[3] = target: PUM2 (human (endogenous in human NPCs)) (UniProt Q8TB72); test: co-IP; co-immunoprecipitation from NPCs with or without PUM1/2 overexpression; which protein was precipitated is not told in the text shown
[4] = target: PUM1 (human (endogenous in human NPCs)) (UniProt Q14671); test: as above

Measured: binding

CNOT1 (from UniProt A5YKK6 1-2376)
binds: all assays above
